Source: article PMC7891773

Assays:
[1] = biological target: T1, GST-mFOG1 (aa 1-45) (mouse) (UniProt O35615); experiment: pull-down; 10-20 μg GST fusion on Glutathione Sepharose with 1 mg S2 cell nuclear extract or Drosophila embryo nuclear extract (TRAX); overnight at 4°C; 25 mM Hepes/KOH pH 7.6, 150 mM KCl, 0.1% NP-40; Western blot; only the target purified
T1 sequence: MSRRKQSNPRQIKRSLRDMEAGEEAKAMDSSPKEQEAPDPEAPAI

[2] = biological target: T1, GST-mFOG1 (aa 1-45) (mouse); experiment: pull-down; GST-mFOG1(1-45) on Glutathione Sepharose with S2 cell nuclear extract, without or with competing peptides; Western blot; the pair that is blocked; only the target purified

Substance | binding [1] | binding [2]
dLSD1 (enzyme) | no binding | 
dMEP-1 | no binding | 
dp66 |  | binds

No constants are given. Whether binding was seen depends on the method and setting. In cells and extracts the contact can be indirect. For part of these data: Binding can be weak; no strength is given. Where a sequence is shown, tags or fusion partners need not be part of it.
